{"source": "the supplement of paper PMC8728848", "test_in_all_cases": "glycan array binding signal (z-score within array); higher = stronger binding", "conditions_in_all_cases": "glycan notation: IUPAC condensed, linker removed", "key": {"[1]": {"molecular_target": "Neu5Ac(a2-3)Gal(b1-4)GlcNAc(b1-3)Gal(b1-4)GlcNAc(b1-3)Gal(b1-4)GlcNAc", "outline": "(§1)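 Glycan array data were curated from 3228 arrays in the Consortium for Functional Glycomics database and kept only where the protein sequence was available. Glycan names were converted to IUPAC-condensed notation, and columns mapping to the same glycan were averaged. The binding signal is a within-array Z-score, averaged across arrays of the same protein sequence at different concentrations or buffers and across linkers. Negative Z-scores can be read as non-binding.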"}, "[2]": {"molecular_target": "Neu5Ac(a2-3)Gal(b1-4)GlcNAc(b1-3)Gal(b1-4)GlcNAc(b1-3)Gal(b1-4)GlcNAc(b1-2)Man(a1-3)[Neu5Ac(a2-3)Gal(b1-4)GlcNAc(b1-3)Gal(b1-4)GlcNAc(b1-3)Gal(b1-4)GlcNAc(b1-2)Man(a1-6)]GalNAc", "outline": "as §1"}, "[3]": {"molecular_target": "Neu5Ac(a2-3)Gal(b1-4)GlcNAc(b1-3)Gal(b1-4)GlcNAc(b1-3)GalNAc", "outline": "as §1"}, "[4]": {"molecular_target": "Neu5Ac(a2-3)Gal(b1-4)GlcNAc(b1-3)Gal(b1-4)GlcNAc(b1-3)[Neu5Ac(a2-3)Gal(b1-4)GlcNAc(b1-3)Gal(b1-4)GlcNAc(b1-6)]GalNAc", "outline": "as §1"}, "[5]": {"molecular_target": "Neu5Ac(a2-3)Gal(b1-4)GlcNAc(b1-3)Gal(b1-4)GlcNAc(b1-6)[Gal(b1-3)]GalNAc", "outline": "as §1"}, "[6]": {"molecular_target": "Neu5Ac(a2-3)Gal(b1-4)GlcNAc(b1-3)Gal(b1-4)[Fuc(a1-3)]GlcNAc", "outline": "as §1"}, "[7]": {"molecular_target": "Neu5Ac(a2-3)Gal(b1-4)GlcNAc(b1-3)GalNAc", "outline": "as §1"}, "[8]": {"molecular_target": "Neu5Ac(a2-3)Gal(b1-4)GlcNAc(b1-3)[Neu5Ac(a2-3)Gal(b1-4)GlcNAc(b1-6)]GalNAc", "outline": "as §1"}, "[9]": {"molecular_target": "Neu5Ac(a2-3)Gal(b1-4)GlcNAc(b1-6)GalNAc", "outline": "as §1"}, "[10]": {"molecular_target": "Neu5Ac(a2-3)Gal(b1-4)GlcNAc(b1-6)[Gal(b1-3)]GalNAc", "outline": "as §1"}, "[11]": {"molecular_target": "Neu5Ac(a2-3)Gal(b1-4)GlcNAc(b1-6)[Neu5Ac(a2-3)Gal(b1-3)]GalNAc", "outline": "as §1"}, "[12]": {"molecular_target": "Neu5Ac(a2-3)Gal(b1-4)GlcNAc6S", "outline": "as §1"}, "[13]": {"molecular_target": "Neu5Ac(a2-3)Gal(b1-4)[Fuc(a1-3)]GlcNAc", "outline": "as §1"}, "[14]": {"molecular_target": "Neu5Ac(a2-3)Gal(b1-4)[Fuc(a1-3)]GlcNAc(b1-2)Man", "outline": "as §1"}, "[15]": {"molecular_target": "Neu5Ac(a2-3)Gal(b1-4)[Fuc(a1-3)]GlcNAc(b1-3)Gal", "outline": "as §1"}, "[16]": {"molecular_target": "Neu5Ac(a2-3)Gal(b1-4)[Fuc(a1-3)]GlcNAc(b1-3)Gal(b1-4)GlcNAc", "outline": "as §1"}, "[17]": {"molecular_target": "Neu5Ac(a2-3)Gal(b1-4)[Fuc(a1-3)]GlcNAc(b1-3)Gal(b1-4)[Fuc(a1-3)]GlcNAc(b1-3)Gal(b1-4)[Fuc(a1-3)]GlcNAc", "outline": "as §1"}, "[18]": {"molecular_target": "Neu5Ac(a2-3)Gal(b1-4)[Fuc(a1-3)]GlcNAc(b1-3)GalNAc", "outline": "as §1"}, "[19]": {"molecular_target": "Neu5Ac(a2-3)Gal(b1-4)[Fuc(a1-3)]GlcNAc(b1-6)[Gal(b1-3)]GalNAc", "outline": "as §1"}, "[20]": {"molecular_target": "Neu5Ac(a2-3)Gal(b1-4)[Fuc(a1-3)]GlcNAc(b1-6)[Neu5Ac(a2-3)Gal(b1-3)]GalNAc", "outline": "as §1"}, "[21]": {"molecular_target": "Neu5Ac(a2-3)Gal(b1-4)[Fuc(a1-3)]GlcNAc6S", "outline": "as §1"}, "[22]": {"molecular_target": "Neu5Ac(a2-3)Gal6S(b1-4)GlcNAc", "outline": "as §1"}, "[23]": {"molecular_target": "Neu5Ac(a2-3)Gal6S(b1-4)[Fuc(a1-3)]GlcNAc", "outline": "as §1"}, "Neu5Ac(a2-3)GalNAc": {"molecular_target": "Neu5Ac(a2-3)GalNAc", "outline": "as §1"}, "[24]": {"molecular_target": "Neu5Ac(a2-3)GalNAc(b1-4)GlcNAc", "outline": "as §1"}, "[25]": {"molecular_target": "Neu5Ac(a2-3)[GalNAc(b1-4)]Gal(b1-4)Glc", "outline": "as §1"}, "[26]": {"molecular_target": "Neu5Ac(a2-3)[GalNAc(b1-4)]Gal(b1-4)GlcNAc", "outline": "as §1"}, "[27]": {"molecular_target": "Neu5Ac(a2-3)[GalNAc(b1-4)]Gal(b1-4)GlcNAc(b1-3)GalNAc", "outline": "as §1"}, "[28]": {"molecular_target": "Neu5Ac(a2-3)[Neu5Ac(a2-6)]GalNAc", "outline": "as §1"}, "Neu5Ac(a2-6)Gal": {"molecular_target": "Neu5Ac(a2-6)Gal", "outline": "as §1"}, "[29]": {"molecular_target": "Neu5Ac(a2-6)Gal(b1-3)GlcNAc(b1-3)[Gal(b1-4)GlcNAc(b1-6)]Gal(b1-4)Glc", "outline": "as §1"}, "Neu5Ac(a2-6)Gal(b1-4)Glc": {"molecular_target": "Neu5Ac(a2-6)Gal(b1-4)Glc", "outline": "as §1"}, "[30]": {"molecular_target": "Neu5Ac(a2-6)Gal(b1-4)GlcNAc", "outline": "as §1"}, "[31]": {"molecular_target": "Neu5Ac(a2-6)Gal(b1-4)GlcNAc(b1-2)Man", "outline": "as §1"}, "[32]": {"molecular_target": "Neu5Ac(a2-6)Gal(b1-4)GlcNAc(b1-2)Man(a1-3)Man(b1-4)GlcNAc(b1-4)GlcNAc", "outline": "as §1"}, "[33]": {"molecular_target": "Neu5Ac(a2-6)Gal(b1-4)GlcNAc(b1-2)Man(a1-3)[Gal(b1-4)GlcNAc(b1-2)Man(a1-6)]Man(b1-4)GlcNAc(b1-4)GlcNAc", "outline": "as §1"}, "[34]": {"molecular_target": "Neu5Ac(a2-6)Gal(b1-4)GlcNAc(b1-2)Man(a1-3)[GlcNAc(b1-2)Man(a1-6)]Man(b1-4)GlcNAc(b1-4)GlcNAc", "outline": "as §1"}, "[35]": {"molecular_target": "Neu5Ac(a2-6)Gal(b1-4)GlcNAc(b1-2)Man(a1-3)[GlcNAc(b1-4)][Neu5Ac(a2-6)Gal(b1-4)GlcNAc(b1-2)Man(a1-6)]Man(b1-4)GlcNAc(b1-4)GlcNAc", "outline": "as §1"}}, "note": "The list shows a part of the results.", "data": [{"binder": "Aap brpt (Staphylococcus epidermidis) (protein) VDGDPITSTEEIPFDKKREFDPNLAPGTEKVVQKGEPGTKTITTPTTKNPLTGEKVGEGEPTEKITKQPVDEIVHYGGEEIKTGHKDEFDPNAPKGSQTTQPGKPGVKNPDTGEVVTPPVDDVTKYGPVDGDPITSTEEIPFDKKREFDPNLAPGTEKVVQKGEPGTKTITTPTTKNPLTGEKVGEGEPTEKITKQPVDEIVHYGGEEIKPGHKDEFDPNAPKGSQEDVPGKPGVKNPDTGEVVTPPVDDVTKYGPVDGDSITSTEEIPFDKKREFDPNLAPGTEKVVQKGEPGTKTITTPTTKNPLTGEKVGEGEPTEKITKQPVDEIVHYGGEQIPQGHKDEFDPNAPVDSKTEVPGKPGVKNPDTGEVVTPPVDDVTKYGPVDGDSITSTEEIPFDKKREFDPNLAPGTEKVVQKGEPGTKTITTPTTKNPLTGEKVGEGKSTEKVTKQPVDEIVEYGPTK", "values": [{"measurement": "glycan array binding signal (z-score)", "setting": "[1]", "value": -1.13}, {"measurement": "glycan array binding signal (z-score)", "setting": "[2]", "value": 1.19}, {"measurement": "glycan array binding signal (z-score)", "setting": "[3]", "value": -0.228}, {"measurement": "glycan array binding signal (z-score)", "setting": "[4]", "value": 0.565}, {"measurement": "glycan array binding signal (z-score)", "setting": "[5]", "value": -0.843}, {"measurement": "glycan array binding signal (z-score)", "setting": "[6]", "value": -0.333}, {"measurement": "glycan array binding signal (z-score)", "setting": "[7]", "value": -0.57}, {"measurement": "glycan array binding signal (z-score)", "setting": "[8]", "value": 0.328}, {"measurement": "glycan array binding signal (z-score)", "setting": "[9]", "value": -2.21}, {"measurement": "glycan array binding signal (z-score)", "setting": "[10]", "value": -0.96}, {"measurement": "glycan array binding signal (z-score)", "setting": "[11]", "value": -0.233}, {"measurement": "glycan array binding signal (z-score)", "setting": "[12]", "value": 0.481}, {"measurement": "glycan array binding signal (z-score)", "setting": "[13]", "value": 0.007}, {"measurement": "glycan array binding signal (z-score)", "setting": "[14]", "value": 0.096}, {"measurement": "glycan array binding signal (z-score)", "setting": "[15]", "value": 0.757}, {"measurement": "glycan array binding signal (z-score)", "setting": "[16]", "value": 1.14}, {"measurement": "glycan array binding signal (z-score)", "setting": "[17]", "value": -1.32}, {"measurement": "glycan array binding signal (z-score)", "setting": "[18]", "value": -0.869}, {"measurement": "glycan array binding signal (z-score)", "setting": "[19]", "value": -0.839}, {"measurement": "glycan array binding signal (z-score)", "setting": "[20]", "value": -1.23}, {"measurement": "glycan array binding signal (z-score)", "setting": "[21]", "value": -1.72}, {"measurement": "glycan array binding signal (z-score)", "setting": "[22]", "value": -0.68}, {"measurement": "glycan array binding signal (z-score)", "setting": "[23]", "value": -2.01}, {"measurement": "glycan array binding signal (z-score)", "setting": "Neu5Ac(a2-3)GalNAc", "value": 0.44}, {"measurement": "glycan array binding signal (z-score)", "setting": "[24]", "value": 0.259}, {"measurement": "glycan array binding signal (z-score)", "setting": "[25]", "value": -1.15}, {"measurement": "glycan array binding signal (z-score)", "setting": "[26]", "value": 0.696}, {"measurement": "glycan array binding signal (z-score)", "setting": "[27]", "value": -0.062}, {"measurement": "glycan array binding signal (z-score)", "setting": "[28]", "value": -0.31}, {"measurement": "glycan array binding signal (z-score)", "setting": "Neu5Ac(a2-6)Gal", "value": 0.426}, {"measurement": "glycan array binding signal (z-score)", "setting": "[29]", "value": -0.86}, {"measurement": "glycan array binding signal (z-score)", "setting": "Neu5Ac(a2-6)Gal(b1-4)Glc", "value": -0.91}, {"measurement": "glycan array binding signal (z-score)", "setting": "[30]", "value": -0.403}, {"measurement": "glycan array binding signal (z-score)", "setting": "[31]", "value": 0.919}, {"measurement": "glycan array binding signal (z-score)", "setting": "[32]", "value": 0.418}, {"measurement": "glycan array binding signal (z-score)", "setting": "[33]", "value": 0.674}, {"measurement": "glycan array binding signal (z-score)", "setting": "[34]", "value": -0.817}, {"measurement": "glycan array binding signal (z-score)", "setting": "[35]", "value": 0.067}]}]}
